In doi:10.1101/2021.12.28.474342 one finds binding data, which are given here for one substance.

Sequences of proteins named here, by UniProt entry; tags and fusion partners are left off.
UniProt O08573: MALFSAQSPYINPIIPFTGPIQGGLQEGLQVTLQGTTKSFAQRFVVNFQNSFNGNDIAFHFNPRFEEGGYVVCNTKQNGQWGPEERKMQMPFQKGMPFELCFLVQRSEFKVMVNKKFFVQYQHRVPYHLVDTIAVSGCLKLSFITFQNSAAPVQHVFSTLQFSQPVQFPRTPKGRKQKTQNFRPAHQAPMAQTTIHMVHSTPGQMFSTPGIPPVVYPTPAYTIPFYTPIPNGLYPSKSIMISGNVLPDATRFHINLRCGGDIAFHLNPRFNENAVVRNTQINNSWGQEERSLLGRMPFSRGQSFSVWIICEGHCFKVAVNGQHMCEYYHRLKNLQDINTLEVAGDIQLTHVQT

The target in this experiment is T1, GFP-mGBP2 WT (full-length mGBP2 with N-terminal GFP) (mouse) (UniProt Q9Z0E6).
T1 sequence: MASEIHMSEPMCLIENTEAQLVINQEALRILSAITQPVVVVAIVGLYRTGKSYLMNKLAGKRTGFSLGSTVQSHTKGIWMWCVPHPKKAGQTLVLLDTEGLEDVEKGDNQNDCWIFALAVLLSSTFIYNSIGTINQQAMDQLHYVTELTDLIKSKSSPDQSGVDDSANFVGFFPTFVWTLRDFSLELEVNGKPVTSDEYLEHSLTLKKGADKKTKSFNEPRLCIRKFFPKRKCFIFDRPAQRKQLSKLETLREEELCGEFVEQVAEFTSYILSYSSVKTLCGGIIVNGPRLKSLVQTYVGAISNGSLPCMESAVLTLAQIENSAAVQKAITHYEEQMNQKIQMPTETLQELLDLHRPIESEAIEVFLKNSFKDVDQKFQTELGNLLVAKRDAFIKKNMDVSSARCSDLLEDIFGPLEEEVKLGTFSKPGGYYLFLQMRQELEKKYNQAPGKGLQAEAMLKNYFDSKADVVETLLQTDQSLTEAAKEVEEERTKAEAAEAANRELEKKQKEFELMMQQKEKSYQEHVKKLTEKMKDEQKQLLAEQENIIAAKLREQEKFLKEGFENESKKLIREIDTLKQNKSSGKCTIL
Put plainly: co-IP.

Results are given in words; binding and its absence hold for the method and conditions named. Binding seen in cells or lysates may run through a third protein. Some entries that bind do so weakly or less than the wild type. Tags and fused reporters may be left off the sequences shown.

With “mCherry-Gal9 (Galectin 9 with N-terminal mCherry) (from UniProt O08573 1-353)”, the binding result was “binds”.
